Results are given in words; binding and its absence hold for the method and conditions named. For some of these results: In cells and extracts the contact can be indirect. Some entries that bind do so weakly or less than the wild type. For some of these results: Tags and fused reporters may be left off the sequences shown. Each block holds one binder with its values, some of them ahead of it.
Key:
[1] = molecular target: HA-FASN, fatty acid synthase (UniProt P49327); assay: co-IP; FLAG-TRIM56 and HA-FASN in HEK293T cells, IP (Figure 5A, B); FASstatin treatment increased the interaction (Figure 8M)
[2] = molecular target: HA-FASN, fatty acid synthase (UniProt P49327); assay: co-IP; HA-FASN expressed in HEK293T cells, endogenous TRIM56 (Figure 5C)
[3] = molecular target: FASN of the GST-pulldown assay (UniProt P49327); assay: pull-down; GST-pulldown assay in HEK293T cells (Figure 5D, E); which partner carried GST is not told
[4] = molecular target: FASN of the SPR analysis (UniProt P49327); assay: SPR; SPR analysis of the FASN-TRIM56 direct interaction (Figure 5F); both purified

The chains behind the UniProt entries cited, without tags or fusion partners.
UniProt P49327: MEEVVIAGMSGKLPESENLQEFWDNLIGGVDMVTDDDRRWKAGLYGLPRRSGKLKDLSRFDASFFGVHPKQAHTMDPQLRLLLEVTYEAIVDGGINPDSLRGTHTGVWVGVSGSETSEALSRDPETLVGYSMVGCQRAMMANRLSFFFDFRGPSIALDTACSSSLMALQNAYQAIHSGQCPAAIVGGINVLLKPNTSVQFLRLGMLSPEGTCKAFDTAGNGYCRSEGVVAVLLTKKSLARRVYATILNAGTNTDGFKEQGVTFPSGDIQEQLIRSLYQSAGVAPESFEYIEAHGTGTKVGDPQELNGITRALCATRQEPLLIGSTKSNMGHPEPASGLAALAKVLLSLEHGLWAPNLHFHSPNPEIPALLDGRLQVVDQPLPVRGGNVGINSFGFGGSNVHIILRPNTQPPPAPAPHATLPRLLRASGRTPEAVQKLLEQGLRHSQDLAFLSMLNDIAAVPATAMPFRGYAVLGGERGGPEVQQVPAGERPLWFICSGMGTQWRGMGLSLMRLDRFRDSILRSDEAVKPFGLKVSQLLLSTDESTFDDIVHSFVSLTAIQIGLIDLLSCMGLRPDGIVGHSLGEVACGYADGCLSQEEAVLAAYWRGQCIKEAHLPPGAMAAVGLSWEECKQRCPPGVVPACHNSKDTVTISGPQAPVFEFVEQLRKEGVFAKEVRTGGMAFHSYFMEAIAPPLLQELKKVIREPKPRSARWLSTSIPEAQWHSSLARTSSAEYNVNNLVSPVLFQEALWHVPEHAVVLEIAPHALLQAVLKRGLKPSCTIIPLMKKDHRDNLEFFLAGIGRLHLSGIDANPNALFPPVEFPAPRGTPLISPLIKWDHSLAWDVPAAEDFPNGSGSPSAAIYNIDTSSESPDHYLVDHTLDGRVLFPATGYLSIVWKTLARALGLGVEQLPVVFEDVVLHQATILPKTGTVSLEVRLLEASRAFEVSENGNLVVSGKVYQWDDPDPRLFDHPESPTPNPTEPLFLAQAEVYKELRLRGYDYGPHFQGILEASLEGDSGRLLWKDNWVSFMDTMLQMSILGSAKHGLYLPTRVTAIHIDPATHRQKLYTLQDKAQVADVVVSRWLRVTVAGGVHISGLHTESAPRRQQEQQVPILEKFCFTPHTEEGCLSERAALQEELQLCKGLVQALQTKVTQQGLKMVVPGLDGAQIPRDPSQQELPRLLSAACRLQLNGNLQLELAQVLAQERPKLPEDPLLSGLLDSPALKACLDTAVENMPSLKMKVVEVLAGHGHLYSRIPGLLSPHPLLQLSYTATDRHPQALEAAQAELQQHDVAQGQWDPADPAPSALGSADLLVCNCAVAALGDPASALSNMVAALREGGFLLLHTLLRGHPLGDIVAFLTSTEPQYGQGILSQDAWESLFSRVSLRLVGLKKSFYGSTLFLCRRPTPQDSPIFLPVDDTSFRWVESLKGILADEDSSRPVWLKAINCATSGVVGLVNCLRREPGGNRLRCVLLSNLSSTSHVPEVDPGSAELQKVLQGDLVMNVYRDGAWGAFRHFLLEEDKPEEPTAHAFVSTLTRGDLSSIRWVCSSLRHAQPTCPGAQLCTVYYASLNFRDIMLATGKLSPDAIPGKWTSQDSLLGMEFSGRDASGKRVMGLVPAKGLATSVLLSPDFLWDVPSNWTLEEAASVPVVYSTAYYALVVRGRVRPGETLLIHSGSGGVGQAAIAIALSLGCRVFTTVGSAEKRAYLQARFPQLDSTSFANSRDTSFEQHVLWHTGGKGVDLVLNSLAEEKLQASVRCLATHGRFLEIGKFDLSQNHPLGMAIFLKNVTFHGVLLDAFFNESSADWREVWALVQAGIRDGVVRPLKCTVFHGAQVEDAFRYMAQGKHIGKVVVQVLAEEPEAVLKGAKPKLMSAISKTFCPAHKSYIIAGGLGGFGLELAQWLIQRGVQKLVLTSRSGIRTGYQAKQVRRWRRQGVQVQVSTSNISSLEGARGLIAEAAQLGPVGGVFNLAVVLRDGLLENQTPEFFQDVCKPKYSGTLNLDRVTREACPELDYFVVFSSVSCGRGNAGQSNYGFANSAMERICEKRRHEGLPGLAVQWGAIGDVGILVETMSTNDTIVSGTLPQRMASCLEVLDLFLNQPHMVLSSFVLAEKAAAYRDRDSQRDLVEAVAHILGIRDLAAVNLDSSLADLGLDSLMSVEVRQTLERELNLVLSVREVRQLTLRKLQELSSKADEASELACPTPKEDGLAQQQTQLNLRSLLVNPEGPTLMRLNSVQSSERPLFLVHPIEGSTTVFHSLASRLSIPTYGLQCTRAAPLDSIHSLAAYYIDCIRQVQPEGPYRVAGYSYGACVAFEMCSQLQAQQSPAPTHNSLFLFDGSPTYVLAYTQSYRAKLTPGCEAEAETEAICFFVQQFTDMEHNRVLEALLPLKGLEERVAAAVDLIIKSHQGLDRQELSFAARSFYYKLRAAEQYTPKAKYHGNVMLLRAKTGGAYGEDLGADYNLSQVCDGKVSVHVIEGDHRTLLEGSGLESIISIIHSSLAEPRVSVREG

binding [2]: binds
B2: endogenous TRIM56 (enzyme, UniProt Q9BRZ2 1-755)
chain: MVSHGSSPSLLEALSSDFLACKICLEQLRAPKTLPCLHTYCQDCLAQLADGGRVRCPECRETVPVPPEGVASFKTNFFVNGLLDLVKARACGDLRAGKPACALCPLVGGTSTGGPATARCLDCADDLCQACADGHRCTRQTHTHRVVDLVGYRAGWYDEEARERQAAQCPQHPGEALRFLCQPCSQLLCRECRLDPHLDHPCLPLAEAVRARRPGLEGLLAGVDNNLVELEAARRVEKEALARLREQAARVGTQVEEAAEGVLRALLAQKQEVLGQLRAHVEAAEEAARERLAELEGREQVARAAAAFARRVLSLGREAEILSLEGAIAQRLRQLQGCPWAPGPAPCLLPQLELHPGLLDKNCHLLRLSFEEQQPQKDGGKDGAGTQGGEESQSRREDEPKTERQGGVQPQAGDGAQTPKEEKAQTTREEGAQTLEEDRAQTPHEDGGPQPHRGGRPNKKKKFKGRLKSISREPSPALGPNLDGSGLLPRPIFYCSFPTRMPGDKRSPRITGLCPFGPREILVADEQNRALKRFSLNGDYKGTVPVPEGCSPCSVAALQSAVAFSASARLYLINPNGEVQWRRALSLSQASHAVAALPSGDRVAVSVAGHVEVYNMEGSLATRFIPGGKASRGLRALVFLTTSPQGHFVGSDWQQNSVVICDGLGQVVGEYKGPGLHGCQPGSVSVDKKGYIFLTLREVNKVVILDPKGSLLGDFLTAYHGLEKPRVTTMVDGRYLVVSLSNGTIHIFRVRSPDS

binding [4]: binds
B4: TRIM56 of the SPR analysis (enzyme, UniProt Q9BRZ2 1-755)
chain: MVSHGSSPSLLEALSSDFLACKICLEQLRAPKTLPCLHTYCQDCLAQLADGGRVRCPECRETVPVPPEGVASFKTNFFVNGLLDLVKARACGDLRAGKPACALCPLVGGTSTGGPATARCLDCADDLCQACADGHRCTRQTHTHRVVDLVGYRAGWYDEEARERQAAQCPQHPGEALRFLCQPCSQLLCRECRLDPHLDHPCLPLAEAVRARRPGLEGLLAGVDNNLVELEAARRVEKEALARLREQAARVGTQVEEAAEGVLRALLAQKQEVLGQLRAHVEAAEEAARERLAELEGREQVARAAAAFARRVLSLGREAEILSLEGAIAQRLRQLQGCPWAPGPAPCLLPQLELHPGLLDKNCHLLRLSFEEQQPQKDGGKDGAGTQGGEESQSRREDEPKTERQGGVQPQAGDGAQTPKEEKAQTTREEGAQTLEEDRAQTPHEDGGPQPHRGGRPNKKKKFKGRLKSISREPSPALGPNLDGSGLLPRPIFYCSFPTRMPGDKRSPRITGLCPFGPREILVADEQNRALKRFSLNGDYKGTVPVPEGCSPCSVAALQSAVAFSASARLYLINPNGEVQWRRALSLSQASHAVAALPSGDRVAVSVAGHVEVYNMEGSLATRFIPGGKASRGLRALVFLTTSPQGHFVGSDWQQNSVVICDGLGQVVGEYKGPGLHGCQPGSVSVDKKGYIFLTLREVNKVVILDPKGSLLGDFLTAYHGLEKPRVTTMVDGRYLVVSLSNGTIHIFRVRSPDS

The remaining lines, values behind:

B1: FLAG-TRIM56 (full-length), tripartite motif 56 (enzyme, UniProt Q9BRZ2 1-755)
chain: MVSHGSSPSLLEALSSDFLACKICLEQLRAPKTLPCLHTYCQDCLAQLADGGRVRCPECRETVPVPPEGVASFKTNFFVNGLLDLVKARACGDLRAGKPACALCPLVGGTSTGGPATARCLDCADDLCQACADGHRCTRQTHTHRVVDLVGYRAGWYDEEARERQAAQCPQHPGEALRFLCQPCSQLLCRECRLDPHLDHPCLPLAEAVRARRPGLEGLLAGVDNNLVELEAARRVEKEALARLREQAARVGTQVEEAAEGVLRALLAQKQEVLGQLRAHVEAAEEAARERLAELEGREQVARAAAAFARRVLSLGREAEILSLEGAIAQRLRQLQGCPWAPGPAPCLLPQLELHPGLLDKNCHLLRLSFEEQQPQKDGGKDGAGTQGGEESQSRREDEPKTERQGGVQPQAGDGAQTPKEEKAQTTREEGAQTLEEDRAQTPHEDGGPQPHRGGRPNKKKKFKGRLKSISREPSPALGPNLDGSGLLPRPIFYCSFPTRMPGDKRSPRITGLCPFGPREILVADEQNRALKRFSLNGDYKGTVPVPEGCSPCSVAALQSAVAFSASARLYLINPNGEVQWRRALSLSQASHAVAALPSGDRVAVSVAGHVEVYNMEGSLATRFIPGGKASRGLRALVFLTTSPQGHFVGSDWQQNSVVICDGLGQVVGEYKGPGLHGCQPGSVSVDKKGYIFLTLREVNKVVILDPKGSLLGDFLTAYHGLEKPRVTTMVDGRYLVVSLSNGTIHIFRVRSPDS
binding [1]: binds

B3: TRIM56 of the GST-pulldown assay (enzyme, UniProt Q9BRZ2 1-755)
chain: MVSHGSSPSLLEALSSDFLACKICLEQLRAPKTLPCLHTYCQDCLAQLADGGRVRCPECRETVPVPPEGVASFKTNFFVNGLLDLVKARACGDLRAGKPACALCPLVGGTSTGGPATARCLDCADDLCQACADGHRCTRQTHTHRVVDLVGYRAGWYDEEARERQAAQCPQHPGEALRFLCQPCSQLLCRECRLDPHLDHPCLPLAEAVRARRPGLEGLLAGVDNNLVELEAARRVEKEALARLREQAARVGTQVEEAAEGVLRALLAQKQEVLGQLRAHVEAAEEAARERLAELEGREQVARAAAAFARRVLSLGREAEILSLEGAIAQRLRQLQGCPWAPGPAPCLLPQLELHPGLLDKNCHLLRLSFEEQQPQKDGGKDGAGTQGGEESQSRREDEPKTERQGGVQPQAGDGAQTPKEEKAQTTREEGAQTLEEDRAQTPHEDGGPQPHRGGRPNKKKKFKGRLKSISREPSPALGPNLDGSGLLPRPIFYCSFPTRMPGDKRSPRITGLCPFGPREILVADEQNRALKRFSLNGDYKGTVPVPEGCSPCSVAALQSAVAFSASARLYLINPNGEVQWRRALSLSQASHAVAALPSGDRVAVSVAGHVEVYNMEGSLATRFIPGGKASRGLRALVFLTTSPQGHFVGSDWQQNSVVICDGLGQVVGEYKGPGLHGCQPGSVSVDKKGYIFLTLREVNKVVILDPKGSLLGDFLTAYHGLEKPRVTTMVDGRYLVVSLSNGTIHIFRVRSPDS
binding [3]: binds

Reference: publication PMC10904058
